Results taken from article PMC5864832.

By UniProt entry, the sequences of proteins in these tests, tags left out. Residues count along the entry.
UniProt P02545, residues 1-646: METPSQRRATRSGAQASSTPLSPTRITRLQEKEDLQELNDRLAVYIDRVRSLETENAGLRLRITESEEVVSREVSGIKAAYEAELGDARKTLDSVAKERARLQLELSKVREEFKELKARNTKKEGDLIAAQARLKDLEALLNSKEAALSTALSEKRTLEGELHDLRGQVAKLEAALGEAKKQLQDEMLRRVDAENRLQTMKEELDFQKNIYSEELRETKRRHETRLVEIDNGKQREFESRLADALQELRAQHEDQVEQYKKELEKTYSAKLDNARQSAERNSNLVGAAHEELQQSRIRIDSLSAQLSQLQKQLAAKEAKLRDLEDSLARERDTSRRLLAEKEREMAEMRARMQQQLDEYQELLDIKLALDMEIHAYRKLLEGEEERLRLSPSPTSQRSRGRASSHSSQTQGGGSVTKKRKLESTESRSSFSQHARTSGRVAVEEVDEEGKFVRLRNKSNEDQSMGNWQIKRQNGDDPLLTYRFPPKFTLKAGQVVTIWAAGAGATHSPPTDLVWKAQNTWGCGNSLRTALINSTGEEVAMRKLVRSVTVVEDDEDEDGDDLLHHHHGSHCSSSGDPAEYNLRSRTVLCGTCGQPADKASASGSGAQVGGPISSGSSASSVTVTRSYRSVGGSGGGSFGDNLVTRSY
UniProt Q8N726: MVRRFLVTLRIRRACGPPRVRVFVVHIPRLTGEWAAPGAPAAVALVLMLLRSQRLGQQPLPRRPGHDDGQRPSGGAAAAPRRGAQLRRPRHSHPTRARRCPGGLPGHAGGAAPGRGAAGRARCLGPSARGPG
UniProt P46013: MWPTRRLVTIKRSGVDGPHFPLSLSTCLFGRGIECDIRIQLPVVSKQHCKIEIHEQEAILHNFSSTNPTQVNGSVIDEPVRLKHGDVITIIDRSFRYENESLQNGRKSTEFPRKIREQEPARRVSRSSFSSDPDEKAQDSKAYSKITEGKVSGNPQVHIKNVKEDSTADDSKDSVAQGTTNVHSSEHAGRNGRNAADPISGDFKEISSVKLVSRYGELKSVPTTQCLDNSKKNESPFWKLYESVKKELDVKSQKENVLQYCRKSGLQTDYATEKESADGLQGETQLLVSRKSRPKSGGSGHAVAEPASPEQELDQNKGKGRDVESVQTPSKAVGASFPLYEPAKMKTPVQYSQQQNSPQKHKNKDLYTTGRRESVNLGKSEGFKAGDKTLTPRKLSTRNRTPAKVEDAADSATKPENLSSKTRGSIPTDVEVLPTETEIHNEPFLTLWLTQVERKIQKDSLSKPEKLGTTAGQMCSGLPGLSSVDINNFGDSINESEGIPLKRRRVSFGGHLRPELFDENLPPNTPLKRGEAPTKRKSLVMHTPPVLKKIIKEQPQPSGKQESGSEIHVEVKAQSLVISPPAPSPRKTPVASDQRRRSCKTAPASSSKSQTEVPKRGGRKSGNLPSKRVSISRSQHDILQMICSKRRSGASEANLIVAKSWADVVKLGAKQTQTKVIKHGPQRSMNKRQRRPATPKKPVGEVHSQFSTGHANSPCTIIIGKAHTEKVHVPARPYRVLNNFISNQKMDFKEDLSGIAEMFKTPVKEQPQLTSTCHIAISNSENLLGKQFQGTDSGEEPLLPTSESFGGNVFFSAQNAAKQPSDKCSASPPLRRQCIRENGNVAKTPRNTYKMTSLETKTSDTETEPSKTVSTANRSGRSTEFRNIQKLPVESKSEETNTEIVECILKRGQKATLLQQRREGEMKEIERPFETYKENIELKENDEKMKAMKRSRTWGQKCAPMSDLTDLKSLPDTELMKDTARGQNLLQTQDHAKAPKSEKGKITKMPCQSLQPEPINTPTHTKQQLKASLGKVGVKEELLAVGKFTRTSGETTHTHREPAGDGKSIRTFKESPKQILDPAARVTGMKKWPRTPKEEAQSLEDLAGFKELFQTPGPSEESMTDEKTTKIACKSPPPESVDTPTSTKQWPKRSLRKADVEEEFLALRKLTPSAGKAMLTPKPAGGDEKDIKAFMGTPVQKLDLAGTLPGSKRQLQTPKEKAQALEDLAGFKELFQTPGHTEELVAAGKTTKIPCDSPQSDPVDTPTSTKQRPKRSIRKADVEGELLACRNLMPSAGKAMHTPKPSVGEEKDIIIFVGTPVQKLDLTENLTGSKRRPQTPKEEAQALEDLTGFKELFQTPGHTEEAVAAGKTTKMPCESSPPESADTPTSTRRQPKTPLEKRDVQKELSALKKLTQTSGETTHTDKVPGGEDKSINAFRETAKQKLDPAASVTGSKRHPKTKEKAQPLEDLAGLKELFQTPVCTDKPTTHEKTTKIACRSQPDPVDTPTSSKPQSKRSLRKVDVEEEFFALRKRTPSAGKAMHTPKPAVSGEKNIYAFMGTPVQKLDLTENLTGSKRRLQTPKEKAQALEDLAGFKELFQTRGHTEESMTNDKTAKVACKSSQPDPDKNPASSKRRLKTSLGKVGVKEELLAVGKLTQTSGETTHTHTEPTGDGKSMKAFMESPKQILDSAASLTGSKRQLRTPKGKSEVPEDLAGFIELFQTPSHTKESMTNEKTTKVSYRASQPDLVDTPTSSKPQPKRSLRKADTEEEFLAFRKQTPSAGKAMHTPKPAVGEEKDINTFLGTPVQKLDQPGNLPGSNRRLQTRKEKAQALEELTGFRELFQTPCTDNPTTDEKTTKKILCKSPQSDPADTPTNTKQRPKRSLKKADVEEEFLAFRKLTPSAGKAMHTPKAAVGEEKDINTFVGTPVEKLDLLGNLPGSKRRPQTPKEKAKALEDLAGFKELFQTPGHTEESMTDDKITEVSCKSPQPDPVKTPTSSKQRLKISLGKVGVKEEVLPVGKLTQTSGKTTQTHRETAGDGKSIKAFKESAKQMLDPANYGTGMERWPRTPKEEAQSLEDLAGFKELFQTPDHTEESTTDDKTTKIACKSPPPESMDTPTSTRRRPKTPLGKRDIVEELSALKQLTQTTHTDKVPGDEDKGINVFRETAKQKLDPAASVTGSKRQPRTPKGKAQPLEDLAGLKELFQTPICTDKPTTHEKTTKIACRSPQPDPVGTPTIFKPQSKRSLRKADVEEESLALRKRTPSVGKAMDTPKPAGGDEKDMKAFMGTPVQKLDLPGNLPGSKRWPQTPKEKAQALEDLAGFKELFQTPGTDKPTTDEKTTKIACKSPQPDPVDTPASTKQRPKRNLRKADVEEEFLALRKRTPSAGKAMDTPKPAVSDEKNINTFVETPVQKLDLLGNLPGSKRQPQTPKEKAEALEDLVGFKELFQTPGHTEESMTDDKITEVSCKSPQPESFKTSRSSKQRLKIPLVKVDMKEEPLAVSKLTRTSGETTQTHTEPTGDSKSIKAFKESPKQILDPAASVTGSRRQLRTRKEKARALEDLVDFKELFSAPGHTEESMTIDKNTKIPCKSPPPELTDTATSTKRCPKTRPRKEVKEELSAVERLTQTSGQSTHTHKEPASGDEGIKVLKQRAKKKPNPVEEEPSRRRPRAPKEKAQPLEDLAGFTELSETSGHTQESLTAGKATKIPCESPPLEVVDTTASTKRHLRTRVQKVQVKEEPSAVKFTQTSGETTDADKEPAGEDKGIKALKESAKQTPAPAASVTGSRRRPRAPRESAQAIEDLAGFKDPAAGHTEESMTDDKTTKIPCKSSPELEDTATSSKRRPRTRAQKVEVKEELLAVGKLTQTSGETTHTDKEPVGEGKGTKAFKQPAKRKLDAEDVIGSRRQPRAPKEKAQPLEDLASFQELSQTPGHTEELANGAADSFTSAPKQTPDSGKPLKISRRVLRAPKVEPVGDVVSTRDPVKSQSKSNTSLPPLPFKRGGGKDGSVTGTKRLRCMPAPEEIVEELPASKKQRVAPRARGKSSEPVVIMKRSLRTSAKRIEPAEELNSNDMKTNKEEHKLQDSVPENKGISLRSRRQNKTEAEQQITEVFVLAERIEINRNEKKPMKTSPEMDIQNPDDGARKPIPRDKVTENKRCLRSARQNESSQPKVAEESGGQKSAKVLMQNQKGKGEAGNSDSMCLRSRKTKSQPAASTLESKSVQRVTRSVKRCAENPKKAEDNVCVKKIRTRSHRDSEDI
UniProt Q7Z4V5: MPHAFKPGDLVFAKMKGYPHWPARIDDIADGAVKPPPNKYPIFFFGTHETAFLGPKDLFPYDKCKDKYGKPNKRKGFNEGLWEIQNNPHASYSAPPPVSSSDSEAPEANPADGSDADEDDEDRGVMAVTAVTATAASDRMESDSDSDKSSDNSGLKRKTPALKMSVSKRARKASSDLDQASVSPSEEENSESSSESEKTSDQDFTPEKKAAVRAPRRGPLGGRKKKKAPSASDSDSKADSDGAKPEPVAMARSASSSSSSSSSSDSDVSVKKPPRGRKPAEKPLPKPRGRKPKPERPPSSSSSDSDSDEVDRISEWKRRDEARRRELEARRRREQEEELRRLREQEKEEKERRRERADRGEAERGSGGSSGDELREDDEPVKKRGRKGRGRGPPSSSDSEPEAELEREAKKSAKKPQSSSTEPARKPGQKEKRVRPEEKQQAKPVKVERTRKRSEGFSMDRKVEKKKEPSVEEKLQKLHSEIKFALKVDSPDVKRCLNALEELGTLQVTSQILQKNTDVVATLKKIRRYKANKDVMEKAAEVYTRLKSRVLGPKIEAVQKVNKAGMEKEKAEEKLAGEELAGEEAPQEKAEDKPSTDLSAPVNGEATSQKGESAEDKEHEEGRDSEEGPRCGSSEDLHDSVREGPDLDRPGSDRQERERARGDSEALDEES
UniProt P09874: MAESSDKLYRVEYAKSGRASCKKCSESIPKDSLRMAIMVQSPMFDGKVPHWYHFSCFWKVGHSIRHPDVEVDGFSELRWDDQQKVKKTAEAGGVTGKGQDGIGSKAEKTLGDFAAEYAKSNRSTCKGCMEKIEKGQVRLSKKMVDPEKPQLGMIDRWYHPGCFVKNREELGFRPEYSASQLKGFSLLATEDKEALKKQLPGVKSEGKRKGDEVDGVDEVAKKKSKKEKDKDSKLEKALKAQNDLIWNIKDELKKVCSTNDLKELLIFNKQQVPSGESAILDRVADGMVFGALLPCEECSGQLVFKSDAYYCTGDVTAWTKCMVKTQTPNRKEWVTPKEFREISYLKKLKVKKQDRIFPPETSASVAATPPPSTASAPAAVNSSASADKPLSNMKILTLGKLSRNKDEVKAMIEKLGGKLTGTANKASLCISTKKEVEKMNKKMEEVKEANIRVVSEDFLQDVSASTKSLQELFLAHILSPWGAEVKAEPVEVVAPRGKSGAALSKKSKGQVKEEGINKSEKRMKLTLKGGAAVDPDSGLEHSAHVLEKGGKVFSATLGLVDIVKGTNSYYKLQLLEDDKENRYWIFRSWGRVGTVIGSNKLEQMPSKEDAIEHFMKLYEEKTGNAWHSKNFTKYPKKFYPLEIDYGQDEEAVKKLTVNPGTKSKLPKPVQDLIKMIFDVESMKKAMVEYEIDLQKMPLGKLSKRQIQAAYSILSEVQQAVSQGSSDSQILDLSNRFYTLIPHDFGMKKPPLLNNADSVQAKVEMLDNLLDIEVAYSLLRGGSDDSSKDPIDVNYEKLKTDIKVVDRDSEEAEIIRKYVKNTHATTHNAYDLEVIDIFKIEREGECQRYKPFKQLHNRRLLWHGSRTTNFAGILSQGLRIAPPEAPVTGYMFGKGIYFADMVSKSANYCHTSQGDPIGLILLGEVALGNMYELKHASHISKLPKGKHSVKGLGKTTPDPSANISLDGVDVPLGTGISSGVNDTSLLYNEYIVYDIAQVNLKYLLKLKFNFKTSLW

B1: NUP50 (protein, UniProt Q9UKX7 1-468)
chain: MAKRNAEKELTDRNWDQEDEAEEVGTFSMASEEVLKNRAIKKAKRRNVGFESDTGGAFKGFKGLVVPSGGGRFSGFGSGAGGKPLEGLSNGNNITSAPPFASAKAAADPKVAFGSLAANGPTTLVDKVSNPKTNGDSQQPSSSGLASSKACVGNAYHKQLAALNCSVRDWIVKHVNTNPLCDLTPIFKDYEKYLANIEQQHGNSGRNSESESNKVAAETQSPSLFGSTKLQQESTFLFHGNKTEDTPDKKMEVASEKKTDPSSLGATSASFNFGKKVDSSVLGSLSSVPLTGFSFSPGNSSLFGKDTTQSKPVSSPFPTKPLEGQAEGDSGECKGGDEEENDEPPKVVVTEVKEEDAFYSKKCKLFYKKDNEFKEKGIGTLHLKPTANQKTQLLVRADTNLGNILLNVLIPPNMPCTRTGKNNVLIVCVPNPPIDEKNATMPVTMLIRVKTSEDADELHKILLEKKDA
B2: MYSM1 (protein, UniProt Q5VVJ2 1-828)
chain: MAAEEADVDIEGDVVAAAGAQPGSGENTASVLQKDHYLDSSWRTENGLIPWTLDNTISEENRAVIEKMLLEEEYYLSKKSQPEKVWLDQKEDDKKYMKSLQKTAKIMVHSPTKPASYSVKWTIEEKELFEQGLAKFGRRWTKISKLIGSRTVLQVKSYARQYFKNKVKCGLDKETPNQKTGHNLQVKNEDKGTKAWTPSCLRGRADPNLNAVKIEKLSDDEEVDITDEVDELSSQTPQKNSSSDLLLDFPNSKMHETNQGEFITSDSQEALFSKSSRGCLQNEKQDETLSSSEITLWTEKQSNGDKKSIELNDQKFNELIKNCNKHDGRGIIVDARQLPSPEPCEIQKNLNDNEMLFHSCQMVEESHEEEELKPPEQEIEIDRNIIQEEEKQAIPEFFEGRQAKTPERYLKIRNYILDQWEICKPKYLNKTSVRPGLKNCGDVNCIGRIHTYLELIGAINFGCEQAVYNRPQTVDKVRIRDRKDAVEAYQLAQRLQSMRTRRRRVRDPWGNWCDAKDLEGQTFEHLSAEELAKRREEEKGRPVKSLKVPRPTKSSFDPFQLIPCNFFSEEKQEPFQVKVASEALLIMDLHAHVSMAEVIGLLGGRYSEVDKVVEVCAAEPCNSLSTGLQCEMDPVSQTQASETLAVRGFSVIGWYHSHPAFDPNPSLRDIDTQAKYQSYFSRGGAKFIGMIVSPYNRNNPLPYSQITCLVISEEISPDGSYRLPYKFEVQQMLEEPQWGLVFEKTRWIIEKYRLSHSSVPMDKIFRRDSDLTCLQKLLECMRKTLSKVTNCFMAEEFLTEIENLFLSNYKSNQENGVTEENCTKELLM
B3: EDF1 (protein, UniProt O60869 1-148)
chain: MAESDWDTVTVLRKKGPTAAQAKSKQAILAAQRRGEDVETSKKWAAGQNKQHSITKNTAKLDRETEELHHDRVTLEVGKVIQQGRQSKGLTQKDLATKINEKPQVIADYESGRAIPNNQVLGKIERAIGLKLRGKDIGKPIEKGPRAK

The molecules below were run against Prelamin-A/C (human) (UniProt P02545) (assay: affinity purification with mass spectrometry; MAC-tagged bait in stable Flp-In T-REx 293 cells, 1 ug/ml tetracycline 24 h, no biotin; lysis buffer 1 (0.5% IGEPAL, 50 mM Hepes pH 8.0, 150 mM NaCl, 50 mM NaF, 5 mM EDTA); single-step Strep-Tactin beads, elution with 0.5 mM biotin; LC-MS; SAINT score >= 0.73 and CRAPome filter against MAC-GFP controls).

binding, binds:
B1

These molecules were tested against Prelamin-A/C (human) (UniProt P02545) (assay: affinity purification with mass spectrometry + proximity labelling; MAC-tagged bait in Flp-In T-REx 293 cells, Strep-Tactin purification, LC-MS; the sentence names the hit without telling which of the two approaches (AP-MS, BioID) found it).

binding, binds:
ARF (from UniProt Q8N726 1-132), KI67 (from UniProt P46013 1-3256), HDGR2 (from UniProt Q7Z4V5 1-671), RAD50 (from UniProt Q92878 1-1312), PARP1 (from UniProt P09874 1-1014), B2, B3

Each molecule was assayed against Prelamin-A/C (human) (UniProt P02545) (assay: proximity labelling; BioID: MAC-tagged bait in stable Flp-In T-REx 293 cells, tetracycline and 50 uM biotin 24 h; lysis buffer 2 (as buffer 1 with 0.1% SDS), sonication, benzonase; biotinylated proteins on Strep-Tactin beads; LC-MS; SAINT and CRAPome filter).

binding, binds:
B1

Results are given in words; binding and its absence hold for the method and conditions named. In cells and extracts the contact can be indirect. These calls come from enrichment with a bait or labelling near it, and not all partners need be listed.
